Reference: PubChem BioAssay AID2685 (National Center for Advancing Translational Sciences (NCATS), 2010)
The list shows a part of the results. These are further read-outs of the screen, such as a control signal, another cell line or another target. No call is given for them. Most of these compounds were active or inconclusive in the main read-out, so they are no random draw. Words in brackets tell the shape of the fitted curve; partial curves, single points and poor fits give uncertain potencies.

Test: qHTS Assay for Lipid Storage Modulators in Drosophila S3 Cells;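 as to cell number change: cells counted by Cell Tracker Red CMTPX staining in the red channel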
Conditions: BODIPY lipid droplet fluorescence, 18-24 h; for cell number change: measured here: cell count max response, cells fed with added oleic acid
Procedure, shortened: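 Laser-scanning cytometry quantifies lipid droplet accumulation (500–530 nm total intensity; droplet/cell object ratio) in oleic acid-fed (400 uM added) Drosophila S3 cells treated with a concentration series. 20 uM Triacsin C defined 100% inhibition.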

[1] = measured here: lipid fluorescence (Fed channel) AC50, cells fed with added oleic acid
[2] = measured here: cell number channel AC50, cells fed with added oleic acid

With CC(=O)NCCNC(=O)C1CCC(CNc2nc(=S)[nH]c3ccccc23)CC1 (stereo unspecified) the cell number change was -12.6%.
Work on CCOc1ccccc1NC(=O)Cn1nc(-c2ccco2)ccc1=O yielded a cell number change of -23.7%.
For CC(=O)Oc1cc2c(cc1Cl)C(c1cccs1)CC1(CC(C)(C)NC(=S)N1)O2 (stereo unspecified), the cell number change was -0.482% and the AC50 [1] was 4.11 µM [falling, full curve, poor fit].
For COc1ccc2c(c1)C=C(CN1CCN(C3CCCC3)C(CCO)C1)CO2 (stereo unspecified), the cell number change was -31.2%, the AC50 [2] was 29.1 µM [falling, single point] and the AC50 [1] was 29.1 µM [falling, single point].
CCCCn1c(N)c(N(CC(C)C)C(=O)COC(=O)C2(c3ccccc3)CC2)c(=O)[nH]c1=O showed a cell number change of 1.97%.
With O=C(CCS(=O)(=O)c1ccc(Br)cc1)NCCC1=CCCCC1 the cell number change was -15% and the AC50 [1] was 0.731 µM [rising, single point].
For CCCC(=O)Nc1nn(C)c2nc3c(C)cccc3cc12, the cell number change was -15% and the AC50 [1] was 0.058 µM [rising, full curve, poor fit].
With CCn1cc(Cl)c(C(=O)Nc2ccc3c(c2)OCCO3)n1 the AC50 [2] was 1.64 µM [rising, single point].
In the case of COc1ccccc1C(=O)Nc1ccnn1C1CCN(C(C)CSC)CC1 (stereo unspecified), the cell number change is reported as -21.3% and the AC50 [1] is reported as 29.1 µM [falling, single point].
For CC(C)N(C)S(=O)(=O)c1ccc(NC(=O)CSC(=S)N2CCCC2)cc1, the cell number change was -3.24% and the AC50 [2] was 0.00461 µM [falling, full curve, poor fit].
With NC(N)=Nc1cc2ccccc2c2ccccc12 the cell number change was -18.9% and the AC50 [2] was 0.461 µM [falling, single point].
For CCN(CC)C(=O)N1CCN(C(=O)N2CCOCC2)CC1, the cell number change was 10.1% and the AC50 [1] was 0.00517 µM [falling, full curve, poor fit].
For Cc1ccc(-c2nnc(-c3cc(C)on3)o2)cc1, the cell number change was -0.408% and the AC50 [1] was 0.291 µM [falling, full curve, poor fit].
For Cc1ccc(OCc2cc(C(=O)NC3CCOC3)no2)cc1C (stereo unspecified), the cell number change was -9.54% and the AC50 [1] was 13 µM [rising, partial curve].
In the case of O=C(Cc1ccccc1)NNC(=O)C1CCCC1, the cell number change is reported as -93.4% and the AC50 [2] is reported as 32.6 µM [falling, partial curve, poor fit].
With CCn1cc(CCC(=O)NCc2cccc(OC)c2OC)c2ccccc21 the cell number change was 14.1% and the AC50 [2] was 0.651 µM [falling, single point].
With Cn1ccnc1C(=O)c1cccc(Br)c1 the AC50 [1] was 0.58 µM [rising, single point].
In the case of C=CCN(c1ccc(F)cc1)S(=O)(=O)c1cc(C(=O)OCC(=O)N(C)C2CCS(=O)(=O)C2)ccc1Cl (stereo unspecified), the cell number change is reported as -17.4% and the AC50 [1] is reported as 29.1 µM [falling, single point].
With O=C(CNC(=O)c1cccc(Br)c1)N/N=C/c1ccc[nH]1 the AC50 [2] was 0.58 µM [rising, single point] and the AC50 [1] was 0.58 µM [rising, single point].
For CN(C)CCCNCCCCNC(=O)/C=N/O, the cell number change was -6.19% and the AC50 [1] was 29.1 µM [falling, single point].
With C/C(=C\C(=O)c1c(O)cc(C)oc1=O)N(C)C the cell number change was 25.1% and the AC50 [1] was 6.51 µM [rising, single point].
With O=S(=O)(Nc1ccc2c(c1)OCCO2)c1ccc(F)c(F)c1 the cell number change was 20.5% and the AC50 [1] was 23.1 µM [rising, single point].
In the case of O=C(OCC(=O)N1CCN(Cc2ccccc2)CC1)c1ccc(Cl)cc1, the cell number change is reported as 29.7%, the AC50 [2] is reported as 4.11 µM [rising, full curve, poor fit] and the AC50 [1] is reported as 2.59 µM [rising, full curve].
With CNC(=S)NNC(=O)Cc1ccccc1 the cell number change was -37.5% and the AC50 [2] was 29.1 µM [falling, partial curve, poor fit].
With O=C(Cn1cc(C(F)(F)F)ccc1=O)Nc1ccc(N2CCOCC2)cc1 the cell number change was -28.4% and the AC50 [1] was 0.0651 µM [falling, full curve, poor fit].
For Cc1c(Br)c([N+](=O)[O-])nn1CC(=O)NCc1cccnc1, the cell number change was -67%, the AC50 [2] was 32.6 µM [falling, partial curve, poor fit] and the AC50 [1] was 6.51 µM [falling, single point].
In the case of O=C(CSc1n[nH]c(=O)n1C1CC1)Nc1ccc(F)c([N+](=O)[O-])c1, the cell number change is reported as 79.2%, the AC50 [2] is reported as 20.6 µM [rising, partial curve] and the AC50 [1] is reported as 18.4 µM [rising, partial curve].
CC(C)(C)N=C1NN=C(c2ccc(Cl)cc2)CS1 showed a cell number change of -30.5%.
With Cc1cccc(NC(=O)c2cccc(N3C(=O)C4C5C=CC(C6CC56)C4C3=O)c2)c1 (stereo unspecified) the AC50 [1] was 6.51 µM [falling, single point].
In the case of O=C(CCl)NNC(=O)c1c(O)c2ccccc2[nH]c1=O, the cell number change is reported as -39.4% and the AC50 [1] is reported as 18.4 µM [falling, partial curve, poor fit].
In the case of Cc1cc(C)n(C(=O)CNC(=O)c2ccccc2F)n1, the cell number change is reported as -17.6%.
For CC(=O)C1=C(C)NC(SCC(=O)Nc2nc3ccccc3s2)=C(C#N)C1c1ccc(Cl)cc1 (stereo unspecified), the cell number change was -15.6% and the AC50 [1] was 29.1 µM [falling, single point].
In the case of COCc1c(C(=O)N/N=C(/C)c2ccc(OCc3ccccc3)cc2)nnn1-c1nonc1N, the cell number change is reported as 7.66% and the AC50 [1] is reported as 6.51 µM [falling, partial curve, poor fit].
Compound COc1ccc(CSc2nc(C)cc(=O)[nH]2)cc1 has a cell number change of 0.977%.
O=C(Oc1ccc(-c2nnco2)cc1)N1CCCCC1 gave a cell number change of -0.661%.
In the case of O=C(OCC(=O)N1CCN(c2ccccc2)CC1)c1ccc2ccccc2n1, the cell number change is reported as 122%, the AC50 [2] is reported as 29.1 µM [rising, single point] and the AC50 [1] is reported as 0.291 µM [rising, full curve].
With O=c1c(-c2ccccc2)nc(-c2ccccc2)cn1O the cell number change was -21.3% and the AC50 [1] was 29.1 µM [falling, single point].
In the case of CCOC(=O)Cc1nnc(NC(=O)CSc2nc3ccccc3[nH]2)s1, the cell number change is reported as -15% and the AC50 [1] is reported as 29.1 µM [falling, single point].
In the case of CCc1ccc(NC(=O)CSc2nnc(Cc3cccn3C)n2-c2ccc(F)cc2)cc1, the cell number change is reported as 14%.
In the case of COc1ccc(N(CC(=O)Nc2cc(OC)c(OC)cc2C(=O)O)S(=O)(=O)c2c(C)noc2C)cc1, the cell number change is reported as -6.6% and the AC50 [1] is reported as 3.26 µM [falling, single point].
In the case of O=C(c1c(Cl)cccc1Cl)N1CCCCCC1, the AC50 [2] is reported as 0.651 µM [falling, full curve, poor fit].
With Cc1c(C(=O)N(C)Cc2ccc(OC(F)F)cc2)oc2ccccc12 the cell number change was -5.13% and the AC50 [1] was 6.51 µM [rising, single point].
For NC(=O)C1CCN(c2ncccc2[N+](=O)[O-])CC1, the cell number change was -38.7% and the AC50 [2] was 0.291 µM [falling, full curve, poor fit].
For COc1cc(C(=O)n2nc(C)cc2C)cc(OC)c1OC, the cell number change was 33.6%, the AC50 [2] was 4.61 µM [rising, full curve, poor fit] and the AC50 [1] was 4.11 µM [rising, full curve].
For CC(=O)c1ccc(N2CCN(CC(=O)NC(=O)NCc3ccccc3)CC2)cc1, the cell number change was -8.57%.
For COc1ccc(-c2nn(-c3ccccc3)cc2/C=C/C(=O)N2CCN(c3ccccn3)CC2)cc1, the cell number change was -50.1%, the AC50 [2] was 25.9 µM [falling, partial curve] and the AC50 [1] was 18.4 µM [falling, partial curve, poor fit].
For CN1CCN(C(=O)C2C3C=CC(C3)C2C(=O)O)CC1 (stereo unspecified), the cell number change was 12.5%.
In the case of COc1ccccc1C(=O)NC1CCSc2ccccc21 (stereo unspecified), the cell number change is reported as 15.8% and the AC50 [1] is reported as 4.61 µM [rising, partial curve].
For CCOC(=O)C1CCN(C2CCN(C(=O)c3oc4c(C)c(C)ccc4c3C)CC2)CC1, the cell number change was -25.1% and the AC50 [1] was 29.1 µM [falling, single point].
For COc1ccc([N+](=O)[O-])cc1NC(=O)CCCOc1ccccc1, the cell number change was 5.94% and the AC50 [1] was 2.91 µM [rising, single point].
In the case of CCN1CCN(c2nc(N)c([N+](=O)[O-])c(Nc3ccc(C)c(C)c3)n2)CC1, the cell number change is reported as -12.5% and the AC50 [2] is reported as 0.326 µM [falling, full curve, poor fit].
CCCSc1nc(C)c(CC(=O)OCC)c(=O)[nH]1 gave a cell number change of -1.21%.
For Cc1cc(C(F)(F)F)c2c(N)c(C(=O)NC3CC3)sc2n1, the AC50 [1] was 15.8 µM [falling, partial curve, poor fit].
For CN1CCN(CC2(O)CCN(S(=O)(=O)c3ccc(Cl)cc3)CC2)CC1, the cell number change was -30.5% and the AC50 [1] was 10.3 µM [falling, partial curve].
For COc1cccc(N=Nc2c(N)[nH]n3c(=O)cc(-c4ccccc4)nc23)c1, the cell number change was -11.8%, the AC50 [2] was 0.164 µM [falling, full curve, poor fit] and the AC50 [1] was 0.103 µM [falling, full curve, poor fit].
COC(=O)C1C(c2ccc(OC)cc2)Nc2nnc(C(F)(F)F)n2C1(C)O (stereo unspecified) showed a cell number change of -69.5%.
For CCCOc1ccc(-c2nc(OCC)c3ccccc3n2)cc1, the cell number change was 13.8%, the AC50 [2] was 0.92 µM [rising, partial curve] and the AC50 [1] was 1.64 µM [rising, partial curve].
In the case of CN1CCN(c2cc(=O)n(Cc3ccc(F)cc3)c(=O)[nH]2)CC1, the cell number change is reported as -53.9%, the AC50 [2] is reported as 29.1 µM [falling, single point] and the AC50 [1] is reported as 2.06 µM [falling, partial curve].
For CCc1cc(=O)oc2c(CNCc3ccc(OC)cc3OC)c(O)c(Cl)cc12, the cell number change was -38.7% and the AC50 [2] was 0.0731 µM [falling, full curve, poor fit].
With COc1ccc2nc(NC(=O)Cn3cnc4ccccc4c3=O)sc2c1 the cell number change was 13.3% and the AC50 [1] was 6.51 µM [rising, single point].
For CCc1ccc(NC(=O)Cc2c(C(=O)O)n(C)c3ccccc23)cc1, the cell number change was -41.3%, the AC50 [2] was 29.1 µM [falling, single point] and the AC50 [1] was 14.6 µM [falling, single point].
